The record followed here is the supplement of paper PMC10338343.

Experiment [1] has as its system MILI (PIWIL2) piRISC loaded with piRNA #1 (26 nt). As to the kind of experiment: pre-steady-state target cleavage rate (min^-1); MIWI and MILI are mouse PIWI proteins and EfPiwi is from a freshwater sponge; tags in brackets are library labels; higher = faster piRNA-guided slicing of the target. The following applies: guide: piRNA #1 5'p-UGAGGUAGUAGGUUGUAUAGUAUCCA; auxiliary factor: 500 nM mouse GTSF1. A digest of the protocol: (§1)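 A burst-and-steady-state fit was used to obtain the pre-steady-state cleavage rate. The input data were sequencing reads of uncleaved targets, normalised to depth and to weakly complementary targets, from a […] transcribed, DNA-blocked target RNA library mixed with 1 nM active affinity-purified piRISC holding one synthetic guide, with or without 500 nM GTSF1 partner protein, in HEPES–potassium acetate buffer at 33 °C for 0–8 or 0–960 min. Three trials were pooled and k3 was capped at 0.0001 min^-1.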

Experiment [2] has as its system MIWI (PIWIL1) piRISC loaded with piRNA #1 (30 nt). The description is as above. Conditions: guide: piRNA #1 5'p-UGAGGUAGUAGGUUGUAUAGUAUCCAGAGG; auxiliary factor: 500 nM mouse GTSF1. A digest of the protocol:
as §1

± gives the standard deviation. The list shows a part of the results, in another mix than the full data. Many of these values have a large error.
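Note: 1 nM active piRISC with 0.1 nM target library at 33 °C single turnover.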

In the case of GGAGACCUAUGAAUAUCAACCUACUACCUCA, the “pre-steady-state target cleavage rate” value in experiment [1] worked out at 0.00209 ± 0.0026; in experiment [2], 0.000212 ± 0.015.
The corresponding values for GGAGACCUAUGAUUACAACCUACUAGCUGA are 0.000809 ± 0.0065 and 0.000121 ± 0.016.
As for GGAGACCUAUGAUAUGUUCCUACUACCUCCA, the “pre-steady-state target cleavage rate” value in experiment [1] was 0.000103 ± 0.032; in experiment [2], 0.000154 ± 0.015.
GGAGACCUAUGAUAUCAACCUGCUACCUCA: the “pre-steady-state target cleavage rate” value in experiment [1] amounted to 0.00081 ± 0.0064; in experiment [2], 0.000222 ± 0.013.
As for GGAGACCUAUGAUUACAACCAACUACCUGA, the “pre-steady-state target cleavage rate” value in experiment [1] worked out at 0.00179 ± 0.0034; in experiment [2], 0.000341 ± 0.0063.
On to GGAGACCUAUGAAUAGCAACCUACUACCUCA, for which the “pre-steady-state target cleavage rate” value in experiment [1] worked out at 0.00225 ± 0.0038; in experiment [2], 0.000245 ± 0.013.
Regarding GGAGACCUAUGAAUACUACCUACUACGUCA, the “pre-steady-state target cleavage rate” value in experiment [1] was found to be 0.00344 ± 0.0026; in experiment [2] it was 0.00031 ± 0.0053.
With GGAGACCUAUGAUAUCAACCUAUUACCUCA, the “pre-steady-state target cleavage rate” value in experiment [1] stood at 0.000718 ± 0.0048; in experiment [2], 0.000131 ± 0.015.
For GGAGACCUAUGAUAACAACCUACAUCCUCA, in that order: 0.00287 ± 0.0034 and 0.00054 ± 0.0046.
The corresponding values for GGAGACCUAUGAAUACUACCAACUACCUCA are 0.00195 ± 0.0035 and 0.000139 ± 0.012.
For the sequence GGAGACCUAACUAUACAACUACUACCUCA, the “pre-steady-state target cleavage rate” value is 0.00399 ± 0.005 in experiment [1] and 0.00165 ± 0.0075 in experiment [2].
Turning to GGAGACCUAUGAUAACAACCUUCUUCCUCA, the “pre-steady-state target cleavage rate” value in experiment [1] came out at 0.00072 ± 0.0057; in experiment [2], 0.000174 ± 0.012.
Take GGAGUGGAUACUAUACAAUCCUACUACCUCA: the results for the “pre-steady-state target cleavage rate” value in experiment [1] and in experiment [2] were 0.00125 ± 0.005 and 0.000299 ± 0.021, respectively.
For “GGAGAGGAUACUAUACAACGAUGAUGGAGA [g12:g25:cont:t1A]”, in that order: 0.000125 ± 0.012 and 0.000191 ± 0.019.
Turning to GGAGACCUAUGAAUACAACCUACUUCCUGA, the results for the “pre-steady-state target cleavage rate” value in experiment [1] and in experiment [2] were 0.00104 ± 0.0049 and 0.000219 ± 0.0088, respectively.
Regarding GGAGACCUAUGUAUAAACCUACUACCUCA, the “pre-steady-state target cleavage rate” value in experiment [1] came to 0.00112 ± 0.0057; in experiment [2] it was 0.000161 ± 0.017.
Turning to GGAGACCUAUGUAUACAACCUACACCUCA, the “pre-steady-state target cleavage rate” value in experiment [1] is 0.00103 ± 0.006; in experiment [2] it was 0.000512 ± 0.0083.
As for GGAGACCUAUGUAUACAACGUACAACCUCA, the results for the “pre-steady-state target cleavage rate” value in experiment [1] and in experiment [2] were 0.00935 ± 0.0021 and 0.00107 ± 0.0051, respectively.
Regarding GGAGACCUAUGAUAUGUUGCUACUAACUCA, the results for the “pre-steady-state target cleavage rate” value in experiment [1] and in experiment [2] were 0.000223 ± 0.035 and 0.000159 ± 0.04, respectively.
GGAGACCUAUGAAUUCAACCUACUACGUCA: the results for the “pre-steady-state target cleavage rate” value in experiment [1] and in experiment [2] were 0.000244 ± 0.017 and 0.000195 ± 0.017, respectively.
The corresponding values for GGAGACCUUACUAUACAACCUGACUACCUCA are 0.00196 ± 0.0041 and 0.00154 ± 0.0039.
For GGAGACCUAUCUAUACAACCAUGUACCUCA, in that order: 0.00233 ± 0.0036 and 0.000502 ± 0.01.
For GGAGACCUAUGAUAUCAAUCCUACUACCUCA, in that order: 0.000172 ± 0.018 and 0.000116 ± 0.016.
Consider GGAGACCUAUGAUUACAAACCUACUACCUCA, for which the “pre-steady-state target cleavage rate” value in experiment [1] amounted to 0.000924 ± 0.0038; in experiment [2] it was 0.000167 ± 0.013.
With GGAGACCUAUGAUUACAACCUACUUACCUCA, the “pre-steady-state target cleavage rate” value in experiment [1] amounted to 0.0057 ± 0.0019; in experiment [2], 0.00149 ± 0.0039.
For GGAGACCUAUGAUUACAACCAACUACCACA, in that order: 0.00189 ± 0.0046 and 0.000214 ± 0.014.
In the case of GGAGACCUAUGAAAACAACCUUCUACCUCA, the “pre-steady-state target cleavage rate” value was 0.00204 ± 0.0033 in experiment [1] and 0.0012 ± 0.0043 in experiment [2].
For GGAGACCUUACUAUACAAGGAACUACCUCA, in that order: 0.0034 ± 0.0034 and 0.0034 ± 0.0039.
For the sequence GGAGACCUAUGAUAUCAACCUACUACCCUCA, the “pre-steady-state target cleavage rate” value worked out at 0.00107 ± 0.0048 in experiment [1] and 0.000277 ± 0.0083 in experiment [2].
Consider GGAGACCUAUGAAUACAAGCCUACUACCUCA, for which the results for the “pre-steady-state target cleavage rate” value in experiment [1] and in experiment [2] were 0.00045 ± 0.015 and 0.000165 ± 0.011, respectively.
The corresponding values for GGAGACCUAUGAUAACAACCUACUACUCA are 0.000448 ± 0.012 and 0.000217 ± 0.012.
For GGAGAGGAUACUAUACAGACCUACUACCUCA, in that order: 0.00164 ± 0.0052 and 0.000655 ± 0.0092.
For GGAGACCUAUGAUAUGUUCCCACUACCUCA, in that order: 0.000178 ± 0.019 and 0.000284 ± 0.0076.
With GGAGACCUAACUAUACAACCUAUACCUCA, the “pre-steady-state target cleavage rate” value was found to be 0.00138 ± 0.0077 in experiment [1] and 0.00012 ± 0.033 in experiment [2].
In the case of GGAGACCUAUGUAUACAACCUACUCCUCA, the “pre-steady-state target cleavage rate” value in experiment [1] stood at 0.00139 ± 0.0039; in experiment [2], 0.000509 ± 0.0072.
Consider GGAGACCUAUGAUAUCAACCUACAUACCUCA, for which the “pre-steady-state target cleavage rate” value came to 0.00233 ± 0.0028 in experiment [1] and 0.000191 ± 0.0093 in experiment [2].
Regarding GGAGACCUAUGAUUACACACCUACUACCUCA, the “pre-steady-state target cleavage rate” value in experiment [1] turned out to be 0.00101 ± 0.0068; in experiment [2] it was 0.000282 ± 0.0089.
As for GGAGACCUAUGAAUACACCCUACUACCUCA, the “pre-steady-state target cleavage rate” value in experiment [1] was found to be 0.00267 ± 0.0034; in experiment [2], 0.00213 ± 0.0031.
In the case of GGAGACCUAUGUAUACAACCUUCUAGCUCA, the results for the “pre-steady-state target cleavage rate” value in experiment [1] and in experiment [2] were 0.00145 ± 0.0058 and 0.0027 ± 0.0034, respectively.
Regarding GGAGACCUAUGAUUACCAACCUACUACCUCA, the “pre-steady-state target cleavage rate” value in experiment [1] turned out to be 0.00284 ± 0.0029; in experiment [2], 0.000645 ± 0.0055.
As for GGAGACCUAUGAAUACAACCUUCAACCUCA, the “pre-steady-state target cleavage rate” value in experiment [1] is 0.00213 ± 0.0027; in experiment [2], 0.000253 ± 0.0079.
GGAGACCUAUGAUAUGUUCCUACUACAUCA: the “pre-steady-state target cleavage rate” value in experiment [1] was found to be 0.000269 ± 0.016; in experiment [2] it was 0.00044 ± 0.0095.
For GGAGACCUAUGAAUACAACCUACUACGAGA, the “pre-steady-state target cleavage rate” value turned out to be 0.00114 ± 0.0057 in experiment [1] and 0.000467 ± 0.015 in experiment [2].
For GGAGACCUAUGAUAUGUUGCUACUACCUUA, in that order: below 0.0001 and 0.000126 ± 0.016.
Take GGAGUGGAUACUAUACAACGAUCUACCUCA: the results for the “pre-steady-state target cleavage rate” value in experiment [1] and in experiment [2] were 0.000982 ± 0.004 and 0.000978 ± 0.0061, respectively.
In the case of GGAGACCUAUGAUAUCAAACUACUACCUCA, the “pre-steady-state target cleavage rate” value in experiment [1] turned out to be 0.00495 ± 0.0026; in experiment [2], 0.000161 ± 0.022.
As for GGAGACCUAUGAUAACAACGUACAACCUCA, the “pre-steady-state target cleavage rate” value was determined as 0.00292 ± 0.0034 in experiment [1] and 0.000129 ± 0.021 in experiment [2].
In the case of GGAGACCUAUGAUUACAACCUACUACCAUCA, the “pre-steady-state target cleavage rate” value in experiment [1] worked out at 0.00378 ± 0.0028; in experiment [2], 0.000482 ± 0.0069.
Take GGAGACCUAUGAAUACAACCUACUACUCA: the “pre-steady-state target cleavage rate” value in experiment [1] turned out to be 0.00146 ± 0.0041; in experiment [2] it was 0.000293 ± 0.0084.
The corresponding values for GGAGACCUAUGAUAUGUUGCAACAACCUCA are 0.000355 ± 0.019 and 0.000216 ± 0.021.
For the sequence GGAGACCUAUGAUAUGAACCUCACUACCUCA, the “pre-steady-state target cleavage rate” value in experiment [1] stood at 0.000118 ± 0.032; in experiment [2], 0.0002 ± 0.014.
For the sequence GGAGACCUAUGAUAACAACCUACUACCCA, the “pre-steady-state target cleavage rate” value is 0.000213 ± 0.012 in experiment [1] and 0.000254 ± 0.012 in experiment [2].
The corresponding values for GGAGACCUAUGUACUACAACCUACUACCUCA are 0.00901 ± 0.0026 and 0.00169 ± 0.004.
For the sequence GGAGACCUAACUAUACAAUCCUACUACCUCA, the “pre-steady-state target cleavage rate” value in experiment [1] was 0.000635 ± 0.015; in experiment [2] it was 0.000201 ± 0.02.
For the sequence GGAGACCUAUGAUAAUAACCUACUACCUCA, the “pre-steady-state target cleavage rate” value in experiment [1] stood at 0.00265 ± 0.0028; in experiment [2], 0.000812 ± 0.0052.
Regarding GGAGACCUAUGUAUACACCUACUACCUCA, the “pre-steady-state target cleavage rate” value in experiment [1] is 0.00288 ± 0.0029; in experiment [2], 0.0015 ± 0.0036.
For GGAGACCUAUGUAUACAACCUGACUACCUCA, the “pre-steady-state target cleavage rate” value is 0.00157 ± 0.004 in experiment [1] and 0.000177 ± 0.015 in experiment [2].
As to GGAGACCUAUGAUAUCAACCCUACUACCUCA, the “pre-steady-state target cleavage rate” value in experiment [1] stood at 0.000139 ± 0.016; in experiment [2], 0.000104 ± 0.019.
The corresponding values for GGAGUGGAUACUAUACAACCUACUAGCUGA are 0.00113 ± 0.0027 and 0.000433 ± 0.0067.
Turning to GGAGACCUAUGAUAUGUACCUAACUACCUCA, the “pre-steady-state target cleavage rate” value was found to be 0.000241 ± 0.011 in experiment [1] and 0.000139 ± 0.025 in experiment [2].
Turning to GGAGACCUAUGAUAUCAAGGUACUACCUCA, the figures for the “pre-steady-state target cleavage rate” value in experiment [1] and in experiment [2] were 0.000452 ± 0.011 and 0.000185 ± 0.012, respectively.
For GGAGACCUAUGAUAACAACCUACUUCCUGA, in that order: 0.000962 ± 0.0059 and 0.000183 ± 0.0098.
